The text below walks through data of PMC11926216.

Sequences of proteins named here, by UniProt entry; tags and fusion partners are left off. Residues count along the entry.
UniProt Q13443, residues 29-819: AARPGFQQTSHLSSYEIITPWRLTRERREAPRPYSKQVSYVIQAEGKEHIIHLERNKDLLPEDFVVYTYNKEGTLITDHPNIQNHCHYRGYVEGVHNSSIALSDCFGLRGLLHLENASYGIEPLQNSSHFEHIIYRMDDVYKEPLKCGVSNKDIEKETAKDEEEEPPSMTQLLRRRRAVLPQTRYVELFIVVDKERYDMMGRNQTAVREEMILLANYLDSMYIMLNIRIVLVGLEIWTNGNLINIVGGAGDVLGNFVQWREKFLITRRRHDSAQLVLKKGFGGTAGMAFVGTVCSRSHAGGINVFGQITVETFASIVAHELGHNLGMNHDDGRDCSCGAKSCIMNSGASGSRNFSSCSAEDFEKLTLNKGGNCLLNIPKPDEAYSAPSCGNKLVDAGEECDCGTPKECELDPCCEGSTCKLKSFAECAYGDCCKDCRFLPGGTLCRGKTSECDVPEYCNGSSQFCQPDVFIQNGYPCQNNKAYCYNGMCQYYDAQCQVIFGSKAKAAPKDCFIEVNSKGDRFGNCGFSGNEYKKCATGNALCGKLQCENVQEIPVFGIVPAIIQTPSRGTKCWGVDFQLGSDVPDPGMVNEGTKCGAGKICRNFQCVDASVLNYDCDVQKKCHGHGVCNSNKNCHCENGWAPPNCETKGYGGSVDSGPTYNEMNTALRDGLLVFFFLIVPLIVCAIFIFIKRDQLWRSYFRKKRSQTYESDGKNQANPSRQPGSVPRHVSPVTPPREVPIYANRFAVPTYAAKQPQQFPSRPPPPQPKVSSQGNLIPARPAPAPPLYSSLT
UniProt P35367: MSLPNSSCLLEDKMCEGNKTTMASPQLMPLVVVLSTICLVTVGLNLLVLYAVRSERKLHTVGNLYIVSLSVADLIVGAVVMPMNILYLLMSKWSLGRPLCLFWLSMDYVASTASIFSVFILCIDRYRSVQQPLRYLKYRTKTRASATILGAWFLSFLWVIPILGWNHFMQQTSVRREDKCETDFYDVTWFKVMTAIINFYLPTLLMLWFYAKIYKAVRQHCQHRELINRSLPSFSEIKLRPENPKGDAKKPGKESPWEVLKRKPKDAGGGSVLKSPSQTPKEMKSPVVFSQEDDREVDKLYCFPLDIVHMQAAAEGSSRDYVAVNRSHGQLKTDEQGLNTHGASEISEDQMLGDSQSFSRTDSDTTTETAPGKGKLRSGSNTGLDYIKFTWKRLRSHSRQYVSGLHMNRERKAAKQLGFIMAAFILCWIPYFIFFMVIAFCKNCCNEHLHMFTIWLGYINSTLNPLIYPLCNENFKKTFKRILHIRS

The test has as its target a disintegrin and metalloprotease 9 (human (endogenous in SAS)) (UniProt Q13443). The test is described as follows: co-IP; endogenous proteins; SAS cells lysed in NETN buffer (150 mM NaCl, 20 mM Tris-base, 0.5% NP-40, 1 mM EDTA); 2 mg lysate with anti-ADAM9 antibody overnight at 4 °C, protein A Sepharose beads 1 h, five washes with NETN, Western blotting.

No constants are given. Whether binding was seen depends on the method and setting. In cells and extracts the contact can be indirect.

Regarding “Histamine receptor H1 (from UniProt P35367 1-487)”, the binding entry is given as “no binding”.
